{"source": "PubChem BioAssay AID1224830 – NIAID | 2016", "aim": "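Regulators of TLR4 signalling towards TNF-alpha in macrophage-like cells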 (primary screen)", "cells": "human THP-1 monocytic leukaemia cells, TNF dual-luciferase reporter clone, PMA-differentiated to macrophage-like cells", "knock-down reagent": "siRNA pool against human genes, 50 nM", "duration": "LPS for 4 h, given about 3 days after siRNA transfection", "challenge": "bacterial LPS (TLR4 ligand), 10 ng/ml", "detection": "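TNF firefly reporter luminescence divided by renilla, normalised to the plate median, then turned into a robust z-score for each replicate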", "direction": "TNF reporter robust z-score: higher = stronger TNF reporter response to LPS", "active means": "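Each well counts as active if its z-score is over 2.8 or under -1.5; controls are left without a call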", "note": "Shown is a random part of about 18,000 reagents. About 2,900 of them (16%) count as active. 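Calls are made per well; low scores hint the gene aids the LPS response, high scores that it dampens it.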 Repeated entries: four replicate wells of each siRNA pool. No sequences are given here."}
{"gene": "CALB2 (GeneID 794)", "TNF reporter robust z-score": 1.33, "Outcome": "inactive"}
{"gene": "CALB2 (GeneID 794)", "TNF reporter robust z-score": 1.28, "Outcome": "inactive"}
{"gene": "CALB2 (GeneID 794)", "TNF reporter robust z-score": 1.06, "Outcome": "inactive"}
{"gene": "CALB2 (GeneID 794)", "TNF reporter robust z-score": -0.03, "Outcome": "inactive"}
{"gene": "IL2 (GeneID 3558)", "TNF reporter robust z-score": -0.99, "Outcome": "inactive"}
{"gene": "IL2 (GeneID 3558)", "TNF reporter robust z-score": -0.47, "Outcome": "inactive"}
{"gene": "IL2 (GeneID 3558)", "TNF reporter robust z-score": -0.84, "Outcome": "inactive"}
{"gene": "IL2 (GeneID 3558)", "TNF reporter robust z-score": -0.63, "Outcome": "inactive"}
{"gene": "ZNF23 (GeneID 7571)", "TNF reporter robust z-score": 1.09, "Outcome": "inactive"}
{"gene": "ZNF23 (GeneID 7571)", "TNF reporter robust z-score": 1.68, "Outcome": "inactive"}
{"gene": "ZNF23 (GeneID 7571)", "TNF reporter robust z-score": 1.51, "Outcome": "inactive"}
{"gene": "ZNF23 (GeneID 7571)", "TNF reporter robust z-score": 2.22, "Outcome": "inactive"}
{"gene": "C6orf120 (GeneID 387263)", "TNF reporter robust z-score": -0.61, "Outcome": "inactive"}
{"gene": "C6orf120 (GeneID 387263)", "TNF reporter robust z-score": 0.3, "Outcome": "inactive"}
{"gene": "C6orf120 (GeneID 387263)", "TNF reporter robust z-score": -0.9, "Outcome": "inactive"}
{"gene": "C6orf120 (GeneID 387263)", "TNF reporter robust z-score": -1.41, "Outcome": "inactive"}
{"gene": "MBNL3 (GeneID 55796)", "TNF reporter robust z-score": -0.67, "Outcome": "inactive"}
{"gene": "MBNL3 (GeneID 55796)", "TNF reporter robust z-score": -1.3, "Outcome": "inactive"}
{"gene": "MBNL3 (GeneID 55796)", "TNF reporter robust z-score": -1, "Outcome": "inactive"}
{"gene": "MBNL3 (GeneID 55796)", "TNF reporter robust z-score": -0.32, "Outcome": "inactive"}
{"gene": "HLX (GeneID 3142)", "TNF reporter robust z-score": 0.03, "Outcome": "inactive"}
{"gene": "HLX (GeneID 3142)", "TNF reporter robust z-score": 3.78, "Outcome": "active"}
{"gene": "HLX (GeneID 3142)", "TNF reporter robust z-score": -0.45, "Outcome": "inactive"}
{"gene": "HLX (GeneID 3142)", "TNF reporter robust z-score": 1.81, "Outcome": "inactive"}
{"gene": "TSNAXIP1 (GeneID 55815)", "TNF reporter robust z-score": 0.37, "Outcome": "inactive"}
{"gene": "TSNAXIP1 (GeneID 55815)", "TNF reporter robust z-score": 1.52, "Outcome": "inactive"}
{"gene": "TSNAXIP1 (GeneID 55815)", "TNF reporter robust z-score": 1.13, "Outcome": "inactive"}
{"gene": "TSNAXIP1 (GeneID 55815)", "TNF reporter robust z-score": 1.53, "Outcome": "inactive"}
{"gene": "PCDHAC1 (GeneID 56135)", "TNF reporter robust z-score": -0.64, "Outcome": "inactive"}
{"gene": "PCDHAC1 (GeneID 56135)", "TNF reporter robust z-score": -1.05, "Outcome": "inactive"}
{"gene": "PCDHAC1 (GeneID 56135)", "TNF reporter robust z-score": -0.79, "Outcome": "inactive"}

Continued:
{"gene": "SPDL1 (GeneID 54908)", "TNF reporter robust z-score": 0.92, "Outcome": "inactive"}
{"gene": "SPDL1 (GeneID 54908)", "TNF reporter robust z-score": 1.94, "Outcome": "inactive"}
{"gene": "SPDL1 (GeneID 54908)", "TNF reporter robust z-score": -0.55, "Outcome": "inactive"}
{"gene": "SPDL1 (GeneID 54908)", "TNF reporter robust z-score": 1.11, "Outcome": "inactive"}
{"gene": "FBXO36 (GeneID 130888)", "TNF reporter robust z-score": -0.02, "Outcome": "inactive"}
{"gene": "FBXO36 (GeneID 130888)", "TNF reporter robust z-score": -0.66, "Outcome": "inactive"}
{"gene": "FBXO36 (GeneID 130888)", "TNF reporter robust z-score": -1.55, "Outcome": "active"}
{"gene": "FBXO36 (GeneID 130888)", "TNF reporter robust z-score": -1.31, "Outcome": "inactive"}
{"gene": "FAM107A (GeneID 11170)", "TNF reporter robust z-score": -0.21, "Outcome": "inactive"}
{"gene": "FAM107A (GeneID 11170)", "TNF reporter robust z-score": -0.43, "Outcome": "inactive"}
{"gene": "FAM107A (GeneID 11170)", "TNF reporter robust z-score": -0.52, "Outcome": "inactive"}
{"gene": "FAM107A (GeneID 11170)", "TNF reporter robust z-score": -0.85, "Outcome": "inactive"}
{"gene": "FSTL4 (GeneID 23105)", "TNF reporter robust z-score": 0.39, "Outcome": "inactive"}
{"gene": "FSTL4 (GeneID 23105)", "TNF reporter robust z-score": 0.42, "Outcome": "inactive"}
{"gene": "FSTL4 (GeneID 23105)", "TNF reporter robust z-score": -0.04, "Outcome": "inactive"}
{"gene": "ADGRG7 (GeneID 84873)", "TNF reporter robust z-score": 0.16, "Outcome": "inactive"}
{"gene": "ADGRG7 (GeneID 84873)", "TNF reporter robust z-score": -0.06, "Outcome": "inactive"}
{"gene": "ADGRG7 (GeneID 84873)", "TNF reporter robust z-score": -0.22, "Outcome": "inactive"}
{"gene": "ADGRG7 (GeneID 84873)", "TNF reporter robust z-score": 0.06, "Outcome": "inactive"}
{"gene": "TCEA1 (GeneID 6917)", "TNF reporter robust z-score": -0.09, "Outcome": "inactive"}
{"gene": "TCEA1 (GeneID 6917)", "TNF reporter robust z-score": -0.25, "Outcome": "inactive"}
{"gene": "TCEA1 (GeneID 6917)", "TNF reporter robust z-score": 1.15, "Outcome": "inactive"}
{"gene": "GALNT10 (GeneID 55568)", "TNF reporter robust z-score": 1.44, "Outcome": "inactive"}
{"gene": "GALNT10 (GeneID 55568)", "TNF reporter robust z-score": -1.1, "Outcome": "inactive"}
{"gene": "GALNT10 (GeneID 55568)", "TNF reporter robust z-score": 0.75, "Outcome": "inactive"}
{"gene": "GALNT10 (GeneID 55568)", "TNF reporter robust z-score": 0.23, "Outcome": "inactive"}
{"gene": "LEPROT (GeneID 54741)", "TNF reporter robust z-score": -0.06, "Outcome": "inactive"}
{"gene": "LEPROT (GeneID 54741)", "TNF reporter robust z-score": -0.66, "Outcome": "inactive"}
{"gene": "LEPROT (GeneID 54741)", "TNF reporter robust z-score": 0.24, "Outcome": "inactive"}
